Results on one substance are retold here after paper PMC5590874.

The target of this test is T1, Immunoglobulin peptide … derived from the CH1 domain of immunoglobulin, labelled with lucifer yellow.
T1 sequence (peptide, lucifer yellow covalently attached to a thiol group by iodoacetamide chemistry): HTFPAVLGSC
Put plainly: fluorescence polarisation; fluorescence anisotropy of the lucifer yellow-labelled peptide at a fixed 12.5 uM with increasing concentrations of BiP; excitation 430 nm, emission 482 nm; both purified. On the technique in general: Polarisation of emitted light reports the rotation of a fluorescent probe.

Results are given in words; binding and its absence hold for the method and conditions named. A result given as binding can be weak or reduced; the word gives no strength. Where a sequence is shown, tags or fusion partners need not be part of it.

On to “Binding immunoglobulin protein (BiP), unmodified”, for which the binding entry is “binds”.
